In the supplement of paper PMC10849652:
This is one part of the list.

Protein sequences, listed by entry. Tags and fused reporters are not part of them. Lines headed by an entry give the natural chain unless they say otherwise; changes in a name come on top.
UniProt O95619, whole entry, looked up: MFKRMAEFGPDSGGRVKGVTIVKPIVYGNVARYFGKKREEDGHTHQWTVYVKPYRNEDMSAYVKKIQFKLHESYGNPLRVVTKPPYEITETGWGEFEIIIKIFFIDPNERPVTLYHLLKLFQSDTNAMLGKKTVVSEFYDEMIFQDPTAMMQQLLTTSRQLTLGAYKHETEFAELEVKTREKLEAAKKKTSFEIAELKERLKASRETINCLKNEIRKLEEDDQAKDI
UniProt P62258: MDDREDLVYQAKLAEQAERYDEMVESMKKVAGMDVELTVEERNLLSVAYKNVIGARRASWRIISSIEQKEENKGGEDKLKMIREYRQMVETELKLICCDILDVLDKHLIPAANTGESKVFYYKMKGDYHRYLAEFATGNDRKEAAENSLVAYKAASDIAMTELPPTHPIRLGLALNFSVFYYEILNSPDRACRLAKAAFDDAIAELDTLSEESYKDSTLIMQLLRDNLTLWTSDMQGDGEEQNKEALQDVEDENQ
UniProt Q8NBI6: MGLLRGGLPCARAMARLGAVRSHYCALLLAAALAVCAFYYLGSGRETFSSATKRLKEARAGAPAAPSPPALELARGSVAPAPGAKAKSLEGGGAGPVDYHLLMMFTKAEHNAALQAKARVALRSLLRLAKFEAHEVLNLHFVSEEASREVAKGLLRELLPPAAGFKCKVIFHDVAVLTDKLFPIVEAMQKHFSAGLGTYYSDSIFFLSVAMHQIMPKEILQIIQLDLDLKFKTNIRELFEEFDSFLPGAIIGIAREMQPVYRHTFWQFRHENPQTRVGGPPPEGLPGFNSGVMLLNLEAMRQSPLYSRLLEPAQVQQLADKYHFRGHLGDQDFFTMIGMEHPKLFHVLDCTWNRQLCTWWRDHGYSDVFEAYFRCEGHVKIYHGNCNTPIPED
UniProt Q9H8U3: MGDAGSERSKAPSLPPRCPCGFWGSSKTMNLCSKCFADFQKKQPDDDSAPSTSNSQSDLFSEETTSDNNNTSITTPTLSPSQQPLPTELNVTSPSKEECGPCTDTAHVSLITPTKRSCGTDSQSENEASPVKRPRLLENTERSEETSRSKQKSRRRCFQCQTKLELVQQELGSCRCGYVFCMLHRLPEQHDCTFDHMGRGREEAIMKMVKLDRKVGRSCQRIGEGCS
UniProt Q6FIF0: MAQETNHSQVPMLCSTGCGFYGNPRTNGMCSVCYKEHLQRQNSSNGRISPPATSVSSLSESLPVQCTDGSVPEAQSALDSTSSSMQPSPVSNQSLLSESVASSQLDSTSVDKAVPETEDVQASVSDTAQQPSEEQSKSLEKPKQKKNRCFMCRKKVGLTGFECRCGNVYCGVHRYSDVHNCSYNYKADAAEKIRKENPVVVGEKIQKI
UniProt Q96JP5: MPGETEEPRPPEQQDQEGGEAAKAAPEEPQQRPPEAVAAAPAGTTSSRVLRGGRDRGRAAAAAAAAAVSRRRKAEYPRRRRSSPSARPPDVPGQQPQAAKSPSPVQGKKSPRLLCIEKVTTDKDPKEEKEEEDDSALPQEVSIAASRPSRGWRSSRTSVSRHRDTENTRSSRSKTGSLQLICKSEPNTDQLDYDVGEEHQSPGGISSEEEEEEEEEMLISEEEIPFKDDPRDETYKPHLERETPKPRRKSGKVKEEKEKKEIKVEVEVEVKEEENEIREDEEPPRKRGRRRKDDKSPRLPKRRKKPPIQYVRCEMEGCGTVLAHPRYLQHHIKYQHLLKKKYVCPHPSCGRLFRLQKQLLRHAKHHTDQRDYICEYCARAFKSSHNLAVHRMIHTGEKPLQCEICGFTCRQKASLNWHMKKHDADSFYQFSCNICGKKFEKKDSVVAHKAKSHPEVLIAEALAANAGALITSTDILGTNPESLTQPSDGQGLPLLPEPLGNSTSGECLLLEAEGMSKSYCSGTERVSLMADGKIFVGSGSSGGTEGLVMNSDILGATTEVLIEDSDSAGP
UniProt Q9UQR1: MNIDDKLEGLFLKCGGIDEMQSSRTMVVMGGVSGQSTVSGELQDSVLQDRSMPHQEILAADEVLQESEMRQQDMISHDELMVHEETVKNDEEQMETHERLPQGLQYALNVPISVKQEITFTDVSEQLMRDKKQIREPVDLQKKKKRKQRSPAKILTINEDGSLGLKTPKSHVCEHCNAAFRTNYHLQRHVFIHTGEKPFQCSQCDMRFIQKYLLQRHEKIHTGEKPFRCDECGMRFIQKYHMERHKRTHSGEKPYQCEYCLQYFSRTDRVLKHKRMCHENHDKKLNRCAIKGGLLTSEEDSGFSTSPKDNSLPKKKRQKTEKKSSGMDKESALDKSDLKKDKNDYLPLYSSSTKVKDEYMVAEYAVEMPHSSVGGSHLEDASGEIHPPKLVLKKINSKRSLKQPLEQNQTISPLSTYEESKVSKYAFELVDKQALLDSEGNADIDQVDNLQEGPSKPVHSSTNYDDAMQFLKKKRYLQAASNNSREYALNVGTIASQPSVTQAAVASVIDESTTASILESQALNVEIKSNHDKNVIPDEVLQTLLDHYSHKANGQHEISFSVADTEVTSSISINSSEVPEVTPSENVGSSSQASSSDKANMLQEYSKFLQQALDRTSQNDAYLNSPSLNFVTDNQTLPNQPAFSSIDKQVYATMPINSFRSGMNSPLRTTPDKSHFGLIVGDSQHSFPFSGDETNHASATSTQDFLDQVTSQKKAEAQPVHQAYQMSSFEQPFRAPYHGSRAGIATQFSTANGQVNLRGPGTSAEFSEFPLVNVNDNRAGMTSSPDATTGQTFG
UniProt Q86WB0: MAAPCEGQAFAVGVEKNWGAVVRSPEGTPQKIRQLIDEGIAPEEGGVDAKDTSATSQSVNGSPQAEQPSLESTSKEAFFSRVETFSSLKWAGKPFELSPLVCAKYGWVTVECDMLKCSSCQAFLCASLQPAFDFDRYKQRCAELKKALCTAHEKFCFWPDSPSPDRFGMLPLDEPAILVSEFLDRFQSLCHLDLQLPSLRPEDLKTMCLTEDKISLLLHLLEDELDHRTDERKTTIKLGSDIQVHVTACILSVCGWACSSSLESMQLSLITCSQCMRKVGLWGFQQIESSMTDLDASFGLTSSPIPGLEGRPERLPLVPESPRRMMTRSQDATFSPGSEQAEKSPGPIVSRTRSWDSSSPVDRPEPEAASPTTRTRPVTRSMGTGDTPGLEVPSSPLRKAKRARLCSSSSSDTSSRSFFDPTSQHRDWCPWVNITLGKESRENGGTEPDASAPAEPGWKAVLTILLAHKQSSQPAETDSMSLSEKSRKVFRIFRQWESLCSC
UniProt Q9HAV4: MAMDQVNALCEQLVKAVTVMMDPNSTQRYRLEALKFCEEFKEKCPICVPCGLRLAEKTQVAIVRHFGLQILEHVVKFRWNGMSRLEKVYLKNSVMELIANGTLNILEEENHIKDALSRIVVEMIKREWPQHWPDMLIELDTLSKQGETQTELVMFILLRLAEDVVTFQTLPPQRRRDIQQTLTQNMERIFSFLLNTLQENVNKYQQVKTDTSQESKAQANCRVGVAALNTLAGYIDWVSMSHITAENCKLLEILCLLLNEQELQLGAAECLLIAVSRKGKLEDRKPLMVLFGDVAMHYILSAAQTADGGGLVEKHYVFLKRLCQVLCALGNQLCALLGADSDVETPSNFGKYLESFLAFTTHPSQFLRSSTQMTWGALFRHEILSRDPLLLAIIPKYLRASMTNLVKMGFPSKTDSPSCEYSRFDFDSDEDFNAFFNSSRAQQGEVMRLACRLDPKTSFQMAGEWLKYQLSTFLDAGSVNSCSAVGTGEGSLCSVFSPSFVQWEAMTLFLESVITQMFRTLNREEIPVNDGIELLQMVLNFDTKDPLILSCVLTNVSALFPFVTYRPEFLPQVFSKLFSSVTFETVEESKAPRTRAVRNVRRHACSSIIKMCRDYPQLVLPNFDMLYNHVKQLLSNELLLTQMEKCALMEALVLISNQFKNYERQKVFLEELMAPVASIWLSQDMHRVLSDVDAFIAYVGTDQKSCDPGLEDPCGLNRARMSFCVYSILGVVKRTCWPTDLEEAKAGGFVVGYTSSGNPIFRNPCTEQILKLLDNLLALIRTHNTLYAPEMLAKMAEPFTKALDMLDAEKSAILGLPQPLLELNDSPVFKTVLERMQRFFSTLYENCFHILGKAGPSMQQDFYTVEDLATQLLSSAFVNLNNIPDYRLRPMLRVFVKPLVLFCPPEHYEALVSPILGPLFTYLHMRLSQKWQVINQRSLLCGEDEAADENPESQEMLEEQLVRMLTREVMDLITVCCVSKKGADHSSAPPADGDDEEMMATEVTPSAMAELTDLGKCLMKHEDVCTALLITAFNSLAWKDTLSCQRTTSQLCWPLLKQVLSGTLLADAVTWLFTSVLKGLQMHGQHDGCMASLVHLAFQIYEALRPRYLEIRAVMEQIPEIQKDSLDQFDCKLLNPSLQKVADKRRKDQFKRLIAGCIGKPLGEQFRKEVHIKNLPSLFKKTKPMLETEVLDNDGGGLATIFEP
UniProt Q9H0D6: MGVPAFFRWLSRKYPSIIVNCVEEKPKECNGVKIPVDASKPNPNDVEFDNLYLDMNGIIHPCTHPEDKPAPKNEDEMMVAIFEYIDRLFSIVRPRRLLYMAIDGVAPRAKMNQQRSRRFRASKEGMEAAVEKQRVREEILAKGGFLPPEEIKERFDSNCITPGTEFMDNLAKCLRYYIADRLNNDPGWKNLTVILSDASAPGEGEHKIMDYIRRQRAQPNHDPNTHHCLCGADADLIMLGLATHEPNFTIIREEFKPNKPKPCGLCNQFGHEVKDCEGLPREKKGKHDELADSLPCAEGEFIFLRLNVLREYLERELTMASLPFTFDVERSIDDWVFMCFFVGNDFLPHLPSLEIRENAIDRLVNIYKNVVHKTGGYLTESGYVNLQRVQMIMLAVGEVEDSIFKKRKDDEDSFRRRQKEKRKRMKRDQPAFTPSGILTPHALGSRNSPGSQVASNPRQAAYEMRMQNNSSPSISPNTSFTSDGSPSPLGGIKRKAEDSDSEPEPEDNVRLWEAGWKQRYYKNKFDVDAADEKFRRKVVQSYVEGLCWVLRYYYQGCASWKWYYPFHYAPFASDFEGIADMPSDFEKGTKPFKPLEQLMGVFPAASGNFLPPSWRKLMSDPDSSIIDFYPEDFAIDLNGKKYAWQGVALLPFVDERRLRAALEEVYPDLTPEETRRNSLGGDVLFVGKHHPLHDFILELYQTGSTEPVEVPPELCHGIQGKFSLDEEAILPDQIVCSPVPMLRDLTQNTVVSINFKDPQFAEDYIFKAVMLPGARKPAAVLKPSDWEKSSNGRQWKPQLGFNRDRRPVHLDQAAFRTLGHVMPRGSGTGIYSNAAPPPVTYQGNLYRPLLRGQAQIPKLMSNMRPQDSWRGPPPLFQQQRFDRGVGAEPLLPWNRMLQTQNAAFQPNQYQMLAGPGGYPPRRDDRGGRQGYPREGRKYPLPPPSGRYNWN
UniProt Q8IX07: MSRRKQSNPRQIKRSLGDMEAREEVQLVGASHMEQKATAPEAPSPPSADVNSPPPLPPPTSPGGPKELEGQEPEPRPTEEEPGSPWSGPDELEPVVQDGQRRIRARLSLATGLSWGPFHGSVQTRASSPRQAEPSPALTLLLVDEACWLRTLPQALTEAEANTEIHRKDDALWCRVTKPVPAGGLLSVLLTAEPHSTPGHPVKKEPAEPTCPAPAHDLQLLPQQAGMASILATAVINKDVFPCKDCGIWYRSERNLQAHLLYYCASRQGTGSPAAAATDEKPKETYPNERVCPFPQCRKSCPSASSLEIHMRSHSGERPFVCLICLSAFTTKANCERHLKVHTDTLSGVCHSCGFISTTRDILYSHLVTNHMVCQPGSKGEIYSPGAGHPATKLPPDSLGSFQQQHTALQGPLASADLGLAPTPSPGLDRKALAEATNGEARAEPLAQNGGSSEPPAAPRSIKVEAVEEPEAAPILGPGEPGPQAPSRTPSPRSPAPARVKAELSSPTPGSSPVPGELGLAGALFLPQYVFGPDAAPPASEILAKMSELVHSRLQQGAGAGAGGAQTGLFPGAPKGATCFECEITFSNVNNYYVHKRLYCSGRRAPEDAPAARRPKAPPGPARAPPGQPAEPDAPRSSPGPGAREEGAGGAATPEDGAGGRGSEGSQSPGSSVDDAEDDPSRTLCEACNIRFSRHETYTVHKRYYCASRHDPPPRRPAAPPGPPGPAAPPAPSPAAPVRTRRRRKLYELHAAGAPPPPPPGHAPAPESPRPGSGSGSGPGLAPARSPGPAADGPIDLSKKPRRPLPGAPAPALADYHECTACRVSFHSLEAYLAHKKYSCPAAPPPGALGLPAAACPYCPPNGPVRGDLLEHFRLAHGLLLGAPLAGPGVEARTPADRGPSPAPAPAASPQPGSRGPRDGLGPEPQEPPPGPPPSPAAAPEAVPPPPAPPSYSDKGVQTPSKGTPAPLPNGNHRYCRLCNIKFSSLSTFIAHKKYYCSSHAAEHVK
UniProt P27348: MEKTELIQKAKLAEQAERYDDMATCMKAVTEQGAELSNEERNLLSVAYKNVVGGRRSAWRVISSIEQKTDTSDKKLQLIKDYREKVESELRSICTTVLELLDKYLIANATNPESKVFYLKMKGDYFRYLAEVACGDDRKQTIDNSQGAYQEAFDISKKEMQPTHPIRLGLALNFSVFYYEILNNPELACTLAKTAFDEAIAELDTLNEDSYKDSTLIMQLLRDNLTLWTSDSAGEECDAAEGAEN

How the values were obtained:
Experiment in all cases: log2 fold change, soluble protein after heating vs DMSO (PISA); higher = thermal stabilisation; K562 cells, 10 uM, 30 min; active = over 0.2 and 3.5 SD of the protein, either way, in both replicates (recomputed)
saracatinib = compound: CN1CCN(CCOc2cc(OC3CCOCC3)c3c(Nc4c(Cl)ccc5c4OCO5)ncnc3c2)CC1 [saracatinib]
Outline: (§1)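 K562 cells at 2×10^6 cells/mL were exposed to 10 μM compound for 30 min, then aliquots were heated for 3 min across 48°C-58°C, pooled, and extracted in PBS containing 0.5% NP-40 at 4°C. The supernatant after 21,000xg for 90 min was taken as soluble protein and measured by TMTpro 16plex LC-MS/MS with channel sums equalised. Thermal stability is reported relative to control samples, with values from duplicates. Fold changes are given on a log2 scale.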

sotrastaurin = compound: CN1CCN(c2nc(C3=C(c4c[nH]c5ccccc45)C(=O)NC3=O)c3ccccc3n2)CC1 [sotrastaurin]
Outline: as §1

alvocidib = compound: CN1CC[C@H](c2c(O)cc(O)c3c(=O)cc(-c4ccccc4Cl)oc23)[C@H](O)C1 [alvocidib]
Outline: as §1

Tubastatin A = compound: CN1CCc2c(c3ccccc3n2Cc2ccc(C(=O)NO)cc2)C1 [Tubastatin A]
Outline: as §1

[1] = compound: CNC(=O)C1=CC=CC=C1NC2=NC(=NC=C2Cl)NC3=C(C=C(C=C3)N4CCOCC4)OC
Outline: as §1

defactinib = compound: CNC(=O)c1ccc(Nc2ncc(C(F)(F)F)c(NCc3nccnc3N(C)S(C)(=O)=O)n2)cc1 [defactinib]
Outline: as §1

rucaparib = compound: CNCc1ccc(-c2[nH]c3cc(F)cc4c3c2CCNC4=O)cc1 [rucaparib]
Outline: as §1

[2] = compound: CNc1nc(-c2ccc3c(N)n[nH]c3c2)cc(N2C[C@@H](C(=O)NC3CCCCC3)CC[C@H]2C)n1
Outline: as §1

encorafenib = compound: COC(=O)N[C@@H](C)CNc1nccc(-c2cn(C(C)C)nc2-c2cc(Cl)cc(NS(C)(=O)=O)c2F)n1 [encorafenib]
Outline: as §1

[3] = compound: COC(=O)[C@H](CCSC)NC(=O)C1=C(C=C(C=C1)NC[C@H](CS)N)C2=CC=CC=C2
Outline: as §1

Target | log2 fold change (saracatinib) | log2 fold change (sotrastaurin) | log2 fold change (alvocidib) | log2 fold change (Tubastatin A) | log2 fold change [1] | log2 fold change (defactinib) | log2 fold change (rucaparib) | log2 fold change [2] | log2 fold change (encorafenib) | log2 fold change [3]
YKT6 (UniProt O15498) | inactive: 0.029 | inactive: 0.033 | inactive: 0.025 | inactive: -0.051 | inactive: 0.001 | inactive: 0 | inactive: -0.041 | inactive: 0.009 | inactive: -0.006 | inactive: -0.004
YEATS4 (UniProt O95619) | inactive: 0.053 | inactive: 0.011 | inactive: 0.04 | inactive: -0.021 | inactive: 0.033 | inactive: -0.001 | inactive: 0.03 | inactive: -0.051 | inactive: -0.005 | inactive: -0.008
YWHAE (UniProt P62258) | inactive: 0.04 | inactive: 0.016 | inactive: 0 | inactive: -0.03 | inactive: -0.033 | inactive: -0.015 | inactive: -0.033 | inactive: -0.04 | inactive: -0.015 | inactive: 0.031
XXYLT1 (UniProt Q8NBI6) | inactive: -0.056 | inactive: -0.038 | inactive: 0.006 | inactive: -0.012 | inactive: 0.034 | inactive: -0.001 | inactive: -0.078 | inactive: -0.014 | inactive: 0.052 | inactive: -0.019
ZFAND3 (UniProt Q9H8U3) | inactive: 0.022 | inactive: 0.046 | inactive: 0.013 | inactive: 0.12 | inactive: 0.031 | inactive: -0.084 | inactive: -0.097 | inactive: -0.017 | inactive: -0.07 | inactive: 0.106
ZFYVE9 (UniProt O95405) | inactive: 0.075 | inactive: 0.178 | inactive: 0.042 | inactive: -0.078 | inactive: 0.109 | inactive: 0.003 | inactive: -0.278 | inactive: -0.004 | inactive: 0.162 | inactive: -0.096
ZFYVE1 (UniProt Q9HBF4) | inactive: 0.037 | inactive: 0.134 | inactive: -0.036 | inactive: 0.132 | inactive: 0.063 | inactive: -0.069 | inactive: -0.118 | inactive: -0.06 | inactive: -0.039 | inactive: 0.059
ZDHHC3 isoform 2 (UniProt Q9NYG2) | inactive: 0.039 | inactive: 0.015 | inactive: -0.02 | inactive: 0.01 | inactive: 0 | inactive: -0.072 | inactive: -0.026 | inactive: -0.074 | inactive: -0.009 | inactive: 0.077
ZFAND6 (UniProt Q6FIF0) | inactive: -0.035 | inactive: 0.13 | – | inactive: 0.144 | inactive: -0.015 | inactive: -0.045 | active: -0.241 | inactive: -0.017 | inactive: -0.019 | inactive: 0.061
ZADH2 (UniProt Q8N4Q0) | inactive: 0.005 | inactive: -0.015 | – | inactive: -0.007 | inactive: -0.051 | inactive: 0.025 | inactive: -0.071 | inactive: -0.011 | inactive: 0.045 | inactive: 0.052
ZMYM1 (UniProt Q5SVZ6) | inactive: -0.024 | inactive: 0.027 | – | inactive: 0.071 | inactive: -0.082 | active: 0.558 | inactive: 0.331 | inactive: -0.021 | inactive: 0.082 | inactive: 0.026
ZFP91 (UniProt Q96JP5) | inactive: 0.036 | inactive: 0.105 | – | inactive: 0.077 | inactive: -0.016 | inactive: 0.054 | inactive: 0.113 | inactive: -0.007 | inactive: 0.038 | inactive: 0.064
YWHAG (UniProt P61981) | inactive: 0.089 | inactive: 0.047 | inactive: 0.026 | inactive: -0.02 | inactive: 0.014 | inactive: -0.012 | inactive: 0.007 | inactive: 0.031 | inactive: -0.065 | inactive: 0.012
ZC3H18 (UniProt Q86VM9) | inactive: -0.072 | inactive: -0.11 | – | inactive: 0.129 | inactive: -0.01 | inactive: -0.234 | inactive: 0.029 | inactive: -0.136 | inactive: -0.03 | inactive: 0.045
XK (UniProt P51811) | inactive: -0.032 | inactive: 0.044 | inactive: 0.003 | – | inactive: 0.023 | inactive: -0.053 | inactive: 0.03 | inactive: 0.007 | inactive: -0.112 | inactive: 0.115
ZC3H7B (UniProt Q9UGR2) | inactive: -0.196 | inactive: -0.08 | inactive: 0.224 | inactive: 0.2 | – | – | inactive: 0.378 | inactive: 0.164 | inactive: 0.401 | –

A portion of the results above:
Target | log2 fold change (saracatinib) | log2 fold change (sotrastaurin) | log2 fold change (alvocidib) | log2 fold change (Tubastatin A) | log2 fold change [1] | log2 fold change (defactinib) | log2 fold change (rucaparib) | log2 fold change [2] | log2 fold change (encorafenib) | log2 fold change [3]
XK (UniProt P51811) | inactive: -0.032 | inactive: 0.044 | inactive: 0.003 | – | inactive: 0.023 | inactive: -0.053 | inactive: 0.03 | inactive: 0.007 | inactive: -0.112 | inactive: 0.115
ZC3H7B (UniProt Q9UGR2) | inactive: -0.196 | inactive: -0.08 | inactive: 0.224 | inactive: 0.2 | – | – | inactive: 0.378 | inactive: 0.164 | inactive: 0.401 | –

Further results follow.

Target | log2 fold change (saracatinib) | log2 fold change (sotrastaurin) | log2 fold change (alvocidib) | log2 fold change (Tubastatin A) | log2 fold change [1] | log2 fold change (defactinib) | log2 fold change (rucaparib) | log2 fold change [2] | log2 fold change (encorafenib) | log2 fold change [3]
YJU2 (UniProt Q9BW85) | inactive: 0.026 | inactive: -0.029 | inactive: -0.052 | inactive: 0.005 | inactive: 0.018 | inactive: -0.002 | inactive: 0.034 | inactive: -0.1 | inactive: -0.034 | inactive: 0.006
YTHDF3 (UniProt Q7Z739) | inactive: 0.01 | inactive: 0.025 | inactive: -0.01 | inactive: 0.018 | inactive: -0.008 | inactive: -0.013 | inactive: -0.001 | inactive: -0.012 | inactive: -0.007 | inactive: -0.024
ZDHHC20 (UniProt Q5W0Z9) | inactive: -0.045 | inactive: 0.015 | – | inactive: 0.02 | inactive: 0 | inactive: -0.231 | inactive: 0.115 | inactive: 0.121 | inactive: -0.058 | inactive: 0.028
ZNF148 (UniProt Q9UQR1) | inactive: -0.038 | inactive: -0.318 | inactive: -0.018 | inactive: -0.205 | inactive: 0.145 | – | – | inactive: 0.087 | – | –
ZC3HC1 (UniProt Q86WB0) | inactive: 0.024 | inactive: -0.178 | – | inactive: 0.07 | inactive: 0.067 | inactive: -0.227 | inactive: -0.047 | inactive: 0.104 | inactive: 0.05 | inactive: -0.093
XPO5 (UniProt Q9HAV4) | inactive: 0 | inactive: -0.087 | – | inactive: -0.03 | inactive: 0.008 | inactive: -0.142 | inactive: -0.028 | inactive: 0.026 | inactive: 0.054 | inactive: -0.004
XRN2 (UniProt Q9H0D6) | inactive: 0.011 | inactive: 0.052 | inactive: 0.085 | inactive: 0.015 | inactive: 0.015 | inactive: 0.045 | inactive: -0.046 | inactive: -0.035 | inactive: 0 | inactive: 0.003
ZBTB43 (UniProt O43298) | inactive: -0.147 | inactive: 0.027 | – | inactive: -0.018 | inactive: -0.007 | inactive: 0.063 | inactive: -0.272 | inactive: -0.014 | inactive: 0.065 | inactive: 0.018
ZBED1 (UniProt O96006) | inactive: 0.077 | inactive: -0.078 | inactive: -0.133 | inactive: 0.05 | – | – | – | inactive: -0.126 | – | –
ZFPM1 (UniProt Q8IX07) | inactive: 0.131 | inactive: 0.008 | inactive: -0.109 | inactive: 0.135 | inactive: -0.027 | inactive: -0.068 | inactive: -0.038 | inactive: -0.141 | inactive: -0.009 | inactive: 0.093
YBX1 (UniProt P67809) | inactive: -0.027 | inactive: 0.016 | – | inactive: 0.022 | inactive: 0.01 | inactive: 0.301 | inactive: 0.253 | inactive: 0.044 | inactive: 0.041 | inactive: 0.113
ZFYVE27 isoform 2 (UniProt Q5T4F4) | inactive: 0.022 | inactive: 0 | inactive: -0.021 | inactive: 0.029 | inactive: -0.006 | inactive: 0 | inactive: -0.006 | inactive: -0.077 | inactive: -0.026 | inactive: 0.012
YWHAZ (UniProt P63104) | inactive: 0.064 | inactive: -0.01 | – | inactive: -0.004 | inactive: -0.013 | inactive: 0 | inactive: -0.041 | inactive: 0.031 | inactive: -0.031 | inactive: -0.002
ZBTB7A (UniProt O95365) | inactive: -0.024 | inactive: -0.054 | inactive: 0.18 | inactive: 0.171 | inactive: 0.245 | – | inactive: -0.001 | inactive: -0.09 | inactive: 0.05 | –
ZFR (UniProt Q96KR1) | inactive: -0.009 | inactive: 0.092 | inactive: 0.42 | inactive: 0.039 | inactive: 0.026 | inactive: 0.332 | inactive: 0.077 | inactive: -0.11 | inactive: 0.063 | inactive: 0.031
YWHAQ (UniProt P27348) | inactive: 0.234 | inactive: -0.043 | – | inactive: -0.026 | inactive: 0.049 | inactive: 0 | inactive: -0.016 | inactive: 0.179 | inactive: -0.016 | inactive: 0.019
